## Primary screen of a compound library

Protein sequences, listed by entry. Tags and fused reporters are not part of them. Residues count along the entry.
UniProt Q4DA54, 1-478: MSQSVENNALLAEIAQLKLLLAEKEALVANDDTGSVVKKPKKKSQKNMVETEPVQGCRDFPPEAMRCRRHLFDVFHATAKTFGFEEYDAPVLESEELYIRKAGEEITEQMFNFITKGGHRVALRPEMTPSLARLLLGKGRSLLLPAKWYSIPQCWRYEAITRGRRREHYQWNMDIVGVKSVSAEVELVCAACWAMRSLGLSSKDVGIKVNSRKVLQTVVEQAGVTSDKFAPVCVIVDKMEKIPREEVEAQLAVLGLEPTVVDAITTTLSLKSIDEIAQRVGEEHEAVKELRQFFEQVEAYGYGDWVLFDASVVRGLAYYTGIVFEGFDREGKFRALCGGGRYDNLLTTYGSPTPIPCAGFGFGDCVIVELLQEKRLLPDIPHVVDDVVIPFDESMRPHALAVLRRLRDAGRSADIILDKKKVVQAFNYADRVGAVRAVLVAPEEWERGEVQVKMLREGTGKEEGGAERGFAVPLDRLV
UniProt P9WNZ1, whole entry: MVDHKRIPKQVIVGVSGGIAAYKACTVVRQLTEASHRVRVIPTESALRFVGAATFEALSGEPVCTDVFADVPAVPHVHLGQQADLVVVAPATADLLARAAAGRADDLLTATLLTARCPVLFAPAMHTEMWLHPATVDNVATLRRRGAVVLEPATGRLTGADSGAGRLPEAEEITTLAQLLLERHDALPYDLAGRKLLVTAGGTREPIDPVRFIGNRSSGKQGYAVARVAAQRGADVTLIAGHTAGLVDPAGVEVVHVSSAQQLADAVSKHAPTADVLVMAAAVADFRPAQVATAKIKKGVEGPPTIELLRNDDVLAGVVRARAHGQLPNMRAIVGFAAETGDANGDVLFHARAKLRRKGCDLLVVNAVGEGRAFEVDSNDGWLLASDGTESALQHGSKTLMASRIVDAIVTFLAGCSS
UniProt A4I591, 1-473: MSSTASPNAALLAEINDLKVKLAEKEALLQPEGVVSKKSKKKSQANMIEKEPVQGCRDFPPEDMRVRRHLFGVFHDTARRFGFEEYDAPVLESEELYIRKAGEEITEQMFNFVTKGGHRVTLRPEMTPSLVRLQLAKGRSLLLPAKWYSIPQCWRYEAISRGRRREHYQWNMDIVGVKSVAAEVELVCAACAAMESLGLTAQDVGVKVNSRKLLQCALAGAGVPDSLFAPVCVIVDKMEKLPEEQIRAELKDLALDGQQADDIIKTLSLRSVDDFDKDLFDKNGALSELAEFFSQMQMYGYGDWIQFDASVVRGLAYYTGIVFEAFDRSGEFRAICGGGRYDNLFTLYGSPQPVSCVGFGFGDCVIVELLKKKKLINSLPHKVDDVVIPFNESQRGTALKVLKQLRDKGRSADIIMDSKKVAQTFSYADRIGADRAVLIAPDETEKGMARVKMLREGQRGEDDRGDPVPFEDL

Each number is a percent effect as filed. The controls that fix the scale are not given in the record; negative values are as filed. The compounds are a random part of those screened. Two or more numbers in one place are separate tests of the same structure; such repeats can differ widely. A dash means the value is not listed here; it may have been measured.

TcHisRS: 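Histidine-tRNA ligase, Trypanosoma cruzi CL Brener (UniProt Q4DA54). Enzyme assay of histidyl-tRNA synthetase; the read-out is not stated. Compounds at 30 µM. Direction is inferred from retests: higher values go with stronger inhibition. Size under these conditions: about 69,000 compounds, about 31 of them at 50% or above in at least one test.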
Leishmania in macrophages: 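Cell assay of Leishmania donovani living inside macrophages; the read-out is not stated. Tested at 30 µM. Higher reads as stronger inhibition (inferred: compounds with an IC50 in retests scored well above the rest). Of about 69,000 compounds tested this way, about 1,000 (1.5%) reached 50% or more in at least one test.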
Toxoplasma: 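Assay of Toxoplasma gondii numbers, read through their beta-galactosidase reporter with a colour substrate. Concentration: 10 µM. The record gives no direction; the compounds picked for IC50 retests had high values, so higher reads as fewer parasites. Of about 67,000 compounds tested this way, about 260 (0.38%) reached 50% or more in at least one test.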
CoaBC: 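Enzyme assay of CoaBC with a phosphate dye (Biomol Green) read at 650 nm. Target: Coenzyme A biosynthesis protein CoaBC, Mycobacterium tuberculosis (UniProt P9WNZ1). Concentration: 30 µM. Higher reads as stronger inhibition, judged from the few compounds that gave an IC50. Most strong results did not repeat in a second test. About 67,000 compounds were tested under these conditions; 0.06% (about 40) showed 50% or more at least once.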
LiHisRS: 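Enzyme assay of histidyl-tRNA synthetase; the read-out is not stated. Target: Histidine-tRNA ligase, Leishmania infantum (UniProt A4I591). Compounds at 30 µM. Direction is inferred from retests: higher values go with stronger inhibition. The assay is labelled LdHisRS but filed under L. infantum. Size under these conditions: about 69,000 compounds, about 410 of them at 50% or above in at least one test.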

compound,TcHisRS,Leishmania in macrophages,Toxoplasma,CoaBC,LiHisRS
CS(=O)(=O)c1cn[nH]c1C1CCCN(C(=O)CN2CCOCC2)C1 (stereo not drawn),3.042,14.03,-19.13,3.832,7.586
[H][C@@]12CN(Cc3cccnc3N)C[C@]1([H])N(Cc1ccccn1)C(=O)O2,-,9.702,7.278,-,-
c1ccc(Cn2cc(CNCC3CNc4ccnn4C3)cn2)cc1 (stereo not drawn),17.29,-13.32,6.502,20 and 22.16,21.43
COCCN(Cc1ccoc1)C(=O)c1ccccc1OC,6,1.889,5.195,-2.24,6.849
O=C(c1ccsc1)N1CCc2c(nc(-c3ccncc3)[nH]c2=O)C1,3.96,15.91,0.5425,2.121,23.29
Cc1ccccc1C(C(=O)N(C)CCc1cn[nH]c1)N(C)C (stereo not drawn),0,29.73,-,2.091,12.9
COc1ccc(C2=NOC(C(=O)N3CCCc4ccccc43)C2)cc1 (stereo not drawn),0.9901,32.37,40.03,-2.058,14.13
Cc1nc(C)n(CC2CCCN2CCc2cccs2)n1 (stereo not drawn),8.745,12.79,-9.174,0.7979,44
COCCOCCC(=O)N1CCC(c2ccccc2C)C1 (stereo not drawn),2.703,15.75,-5.427,5.909,5.479
Cc1ccc(C(=O)NCC(O)c2ccc(Cl)s2)c(=O)[nH]1 (stereo not drawn),8.235,11.83,27.86,6.388,13.49
Cc1cc(C(=O)N2CCc3nc(N4CCOCC4)nc(C)c3C2)c(C)o1,10.55,-,-,-0.6188,13.86
COCC1CCN(Cc2cc(O)c3c(C)ccc(C)c3n2)CC1,1.266,-6.394,7.439,1.202,-4.167
CCOC(=O)[C@]12CCCN(Cc3cccs3)C[C@H]1CN(C(C)=O)C2,7.263,-,-,2.303,3.846
CCN1CCN(C(=O)C(C)n2cc(Br)cn2)CC1 (stereo not drawn),4.348,-33.19,0.6061,-32.79,1.724
CN1CC(c2ccccc2)CC12CCN(C(=O)c1cncc(Cl)c1)CC2 (stereo not drawn),0.8264,13.07,-7.047,0,15.24
[H][C@@]12CCN(Cc3nc(C)cs3)C[C@@]1([H])O[C@@H](c1noc(C)n1)C2,-,26.92,1.997,-,-
N#Cc1cccc(N2CC3(CCN(C(=O)C4CC=CC4)C3)CC2=O)c1 (stereo not drawn),14.05,18.75,4.34,-10.08,23.64
CCNc1ncc(C(=O)N2CCOC(CCCC(C)C)C2)cn1 (stereo not drawn),5.319,-4.735,13.72,9.761,25
CCCN(CCC)C(=O)Cn1c(SC)nc2ccsc2c1=O,-5.263,13.36,5.116,-0.8092,14.29
Cc1nn(C)c(C)c1CCC(=O)N1CCCC1Cn1cccn1 (stereo not drawn),2.674,5.391,3.971,-0.207,11.54
O=C1NCC(CN2CCc3onc(-c4ccc(C(F)(F)F)cc4)c3C2)O1 (stereo not drawn),7.595,2.747,4.722,3.125,25
Cn1cc(CN2CC[C@H]3OCC[C@@H](C(=O)NCc4ccco4)[C@@H]3C2)cn1,1.22,-,-,-0.7519,5.128
Cc1n[nH]cc1CNc1ccc2c(c1)CN(C(=O)OC(C)(C)C)CC2,-2.51,49.34,-60.2,9.091,8.491
Cc1ccccc1C1(CNC(=O)c2ccc(S(C)(=O)=O)cc2)CC1,0.8403,20.47,-6.603,4.435,1.754
O=C(NC1CCCC1)NC1CCc2[nH]c(=O)ccc2C1 (stereo not drawn),2.151,9.168 and 11.79,-2.835,4.017,8.772
CN(Cc1cccc(OC(F)F)c1)Cc1nc2c(cnn2C)c(=O)[nH]1,-1.734,-4.94,-1.409,1.695,0.8772
Cc1ccc(CN2CC[C@H]3[C@H](CC(Cn4cccn4)N3C)C2)s1 (stereo partly drawn),6,-,-,3.821,8.219
CC(C)c1cc(N2CCC(N(C)C)C2)n2nccc2n1 (stereo not drawn),1.02,-13.96,1.274,9.127,19.44
Cc1ccc(C)c(OC(C)C(=O)NCCNc2cccnc2)c1 (stereo not drawn),5.435,-7.958,-11.61,-4.637,60.61
CC1=Nc2c(c(=O)[nH]n2C2CCCC2)C(c2ccc(O)cc2)S1 (stereo not drawn),0.9901,1.698,11.32,0.3632,44.57
COc1ccc(N(C)C(=O)C2CN(C)CCO2)cc1F (stereo not drawn),6.897,-34.2,1.134,15.2,12.82
O=C(C1CCCC1)N1CCO[C@@H]2CNC[C@@H]21,5.747,-,-,-6.762,8
Cl.O=C(NCCn1nc(C2CCNC2)c2cccnc21)C1CCC1 (stereo not drawn),-,9.097,12.4,-,-
CSCCC(=O)N1CCCC1c1nnc2n1CCCCC2 (stereo not drawn),4.933,5.421,-17.71,1.523,3.529
O=C1OCCN1c1cccc(CNS(=O)(=O)Cc2ccc(F)cc2)c1,2.105,29.96,-11.43,-0.3984,16.44

Some entries from above, unchanged:

For COCC1CCN(Cc2cc(O)c3c(C)ccc(C)c3n2)CC1 the result was TcHisRS: 1.266%; Leishmania in macrophages: -6.394%; Toxoplasma: 7.439%; CoaBC: 1.202%; LiHisRS: -4.167%.
For COc1ccc(N(C)C(=O)C2CN(C)CCO2)cc1F (stereo not drawn) the result was TcHisRS: 6.897%; Leishmania in macrophages: -34.2%; Toxoplasma: 1.134%; CoaBC: 15.2%; LiHisRS: 12.82%.
For O=C(NC1CCCC1)NC1CCc2[nH]c(=O)ccc2C1 (stereo not drawn) the result was TcHisRS: 2.151%; Leishmania in macrophages: 9.168% and 11.79%; Toxoplasma: -2.835%; CoaBC: 4.017%; LiHisRS: 8.772%.
For c1ccc(Cn2cc(CNCC3CNc4ccnn4C3)cn2)cc1 (stereo not drawn) the result was TcHisRS: 17.29%; Leishmania in macrophages: -13.32%; Toxoplasma: 6.502%; CoaBC: 20% and 22.16%; LiHisRS: 21.43%.

The values are deposited in ChEMBL (CHEMBL3988442, “University of Dundee, Small-Polar-MMV Screening Library” (2021)).